Changes are numbered by the printed parent chain. Like-named read-outs stand apart in the source and are kept apart here. Results are given in words; binding and its absence hold for the method and conditions named. Some entries that bind do so weakly or less than the wild type.
Legend:
Test in all cases: two-hybrid
[1] = target: T1, arginine/serine-rich zinc knuckle-containing protein 32 (RS2Z32), native full-length, yeast two-hybrid bait (Arabidopsis thaliana) (UniProt Q9FYB7)
T1 sequence: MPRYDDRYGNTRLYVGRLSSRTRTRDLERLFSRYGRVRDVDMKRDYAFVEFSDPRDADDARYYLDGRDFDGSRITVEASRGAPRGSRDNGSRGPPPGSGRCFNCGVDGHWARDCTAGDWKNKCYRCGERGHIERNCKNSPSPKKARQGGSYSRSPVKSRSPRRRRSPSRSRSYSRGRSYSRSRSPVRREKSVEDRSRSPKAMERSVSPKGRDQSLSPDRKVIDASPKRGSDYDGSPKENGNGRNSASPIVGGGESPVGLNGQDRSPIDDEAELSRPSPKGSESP

[2] = target: T2, arginine/serine-rich zinc knuckle-containing protein 33 (RS2Z33), native full-length, yeast two-hybrid bait (Arabidopsis thaliana) (UniProt Q8VYA5)
T2 sequence: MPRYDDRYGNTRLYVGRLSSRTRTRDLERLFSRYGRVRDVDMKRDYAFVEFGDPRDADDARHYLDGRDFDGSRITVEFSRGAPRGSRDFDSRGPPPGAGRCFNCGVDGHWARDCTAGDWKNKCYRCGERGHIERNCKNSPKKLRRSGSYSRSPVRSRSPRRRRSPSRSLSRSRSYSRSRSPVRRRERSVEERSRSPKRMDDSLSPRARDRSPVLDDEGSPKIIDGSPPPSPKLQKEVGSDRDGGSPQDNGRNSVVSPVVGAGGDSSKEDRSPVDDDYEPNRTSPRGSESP

[3] = target: T2, arginine/serine-rich zinc knuckle-containing protein 33 (RS2Z33), native full-length, yeast two-hybrid bait (Arabidopsis thaliana); remark: listed apart in the source
[4] = target: T3, RS2Z32mutRRM (Arabidopsis thaliana) (UniProt Q9FYB7)
T3 sequence: T1 sequence with Y14A, Y46A, F48A

[5] = target: T4, RS2Z32ΔZnKs+RS+SP (the sole RRM of RS2Z32) (Arabidopsis thaliana) (UniProt Q9FYB7)
T4 sequence: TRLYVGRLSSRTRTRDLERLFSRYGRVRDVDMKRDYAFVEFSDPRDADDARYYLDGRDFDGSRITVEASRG

[6] = target: T5, RS2Z33mutRRM (Arabidopsis thaliana) (UniProt Q8VYA5)
T5 sequence: T2 sequence with Y14A, Y46A, F48A

[7] = target: T6, RS2Z33ΔZnKs+RS+SP (the sole RRM of RS2Z33) (Arabidopsis thaliana) (UniProt Q8VYA5)
T6 sequence: T4 sequence with S42G, Y52H, A68F

[8] = target: T1, arginine/serine-rich zinc knuckle-containing protein 32 (RS2Z32), native full-length, yeast two-hybrid bait (Arabidopsis thaliana); remark: listed apart in the source
[9] = target: T2, arginine/serine-rich zinc knuckle-containing protein 33 (RS2Z33), native full-length, yeast two-hybrid bait (Arabidopsis thaliana); remark: listed apart in the source

Measured: binding

B1: SR45.1 (protein, UniProt Q9SEE9-1 1-414)
chain: MAKPSRGRRSPSVSGSSSRSSSRSRSGSSPSRSISRSRSRSRSLSSSSSPSRSVSSGSRSPPRRGKSPAGPARRGRSPPPPPSKGASSPSKKAVQESLVLHVDSLSRNVNEAHLKEIFGNFGEVIHVEIAMDRAVNLPRGHGYVEFKARADAEKAQLYMDGAQIDGKVVKATFTLPPRQKVSSPPKPVSAAPKRDAPKSDNAAADAEKDGGPRRPRETSPQRKTGLSPRRRSPLPRRGLSPRRRSPDSPHRRRPGSPIRRRGDTPPRRRPASPSRGRSPSSPPPRRYRSPPRGSPRRIRGSPVRRRSPLPLRRRSPPPRRLRSPPRRSPIRRRSRSPIRRPGRSRSSSISPRKGRGPAGRRGRSSSYSSSPSPRRIPRKISRSRSPKRPLRGKRSSSNSSSSSSPPPPPPPRKT
binds: all assays above

Reference: publication doi:10.1101/2024.09.04.610270
